Reference: patent CN117751139A
These are yes or no findings as the source states them, for the method shown. Some binding calls cover weakened binding; strength is not graded here.

Amino acid sequences for entries named in this document (tags omitted). A change or cut given only in a name is not applied to a line headed by its entry. Residues count along the entry.
UniProt Q96NY8: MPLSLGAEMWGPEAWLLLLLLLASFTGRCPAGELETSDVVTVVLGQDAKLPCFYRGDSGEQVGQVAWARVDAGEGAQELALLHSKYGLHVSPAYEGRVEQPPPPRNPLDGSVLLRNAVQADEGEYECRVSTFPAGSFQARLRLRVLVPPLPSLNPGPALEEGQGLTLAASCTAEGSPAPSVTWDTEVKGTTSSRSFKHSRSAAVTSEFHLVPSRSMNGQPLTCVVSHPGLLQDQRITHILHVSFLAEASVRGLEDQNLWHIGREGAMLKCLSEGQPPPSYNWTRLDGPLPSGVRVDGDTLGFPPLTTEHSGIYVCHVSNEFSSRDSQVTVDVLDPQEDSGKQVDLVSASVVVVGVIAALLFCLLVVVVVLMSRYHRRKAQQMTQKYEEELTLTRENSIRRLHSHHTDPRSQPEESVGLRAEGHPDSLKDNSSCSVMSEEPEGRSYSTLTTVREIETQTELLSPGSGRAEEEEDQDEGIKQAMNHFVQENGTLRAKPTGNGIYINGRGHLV
Nectin-4 expressed by normal differentiated human keratinocytes (NHEK): residues 32-510 of Q96NY8
Nectin-4 extracellular domain Fc fusion recombinant protein (Nec4-VCC): residues 32-349 of Q96NY8
Nectin-4 IgV-like domain Fc fusion recombinant protein (Nec4-V): residues 32-147 of Q96NY8

Tests used:
[1] = target: human Nectin-4 with N-terminal Flag epitope tag, on transfected MDA-MB231 cells (human) (UniProt Q96NY8); experiment: flow cytometry on MDA-MB231 cells transfected with N-terminally Flag-tagged Nectin-4
[2] = target: Nectin-4 IgV-like domain Fc fusion recombinant protein (Nec4-V) (human) (UniProt Q96NY8); experiment: ELISA on coated Fc fusion
[3] = target: Nectin-4 IgV-like domain Fc fusion recombinant protein (Nec4-V) (human) (UniProt Q96NY8); experiment: ELISA on coated Fc fusion, peroxidase-conjugated antibody
[4] = target: Nectin-4 extracellular domain Fc fusion recombinant protein (Nec4-VCC) (human) (UniProt Q96NY8); experiment: as above
[5] = target: human Nectin-4 on CHO cells transfected with human Nectin-4 cDNA (human) (UniProt Q96NY8); experiment: flow cytometry competition on CHO cells with human Nectin-4; competitor Nec1-VCC
[6] = target: Nectin-4 expressed by normal differentiated human keratinocytes (NHEK) (human) (UniProt Q96NY8); experiment: flow cytometry on normal differentiated human keratinocytes (NHEK), 8 pM-33 nM

Measured: binding

B1: Ch-15A7.5 (antibody, V domains shown)
VH: EVKLVESGGGLVQPGGSRKLSCAASGFTFSNYGMAWVRQAPGKGPEWVAFISNLAYGINYADTVTGRFTISRENAKNTLYLEMRSLRSEDTAMYYCARGARATGWFAYWGQGTLVTVSA
VL: DIVMTQSQKFMSTSIGDRVSVTCKASQNVDTHVAWYQEKPGQSPKALIYSASYRYSGVPDRFTGSGSGTDFTLTISNVQSEDLADYFCQQYNSYPLTFGGGTKLEIK
binds: all assays above
